This passage reports binding results from article PMC4126692.

Protein sequences, listed by entry. Tags and fused reporters are not part of them.
UniProt Q08775: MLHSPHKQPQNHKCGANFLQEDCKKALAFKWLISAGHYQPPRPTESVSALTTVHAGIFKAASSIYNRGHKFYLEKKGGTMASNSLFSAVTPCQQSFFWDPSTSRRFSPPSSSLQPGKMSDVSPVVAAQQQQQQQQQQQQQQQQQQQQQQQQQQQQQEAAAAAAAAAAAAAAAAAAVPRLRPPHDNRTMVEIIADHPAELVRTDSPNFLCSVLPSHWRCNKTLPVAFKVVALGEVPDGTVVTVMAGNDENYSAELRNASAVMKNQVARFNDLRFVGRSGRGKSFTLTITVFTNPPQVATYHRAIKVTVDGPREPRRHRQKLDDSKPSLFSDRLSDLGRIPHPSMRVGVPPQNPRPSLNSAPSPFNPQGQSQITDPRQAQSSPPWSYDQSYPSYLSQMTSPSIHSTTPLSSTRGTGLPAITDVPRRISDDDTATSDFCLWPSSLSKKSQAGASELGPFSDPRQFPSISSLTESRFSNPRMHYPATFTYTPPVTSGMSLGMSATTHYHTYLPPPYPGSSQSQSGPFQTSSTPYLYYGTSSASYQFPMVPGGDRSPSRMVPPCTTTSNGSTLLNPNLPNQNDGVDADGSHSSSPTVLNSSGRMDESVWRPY

No constants are given. Whether binding was seen depends on the method and setting. Binding seen in cells or lysates may run through a third protein. Some binding calls cover weakened binding; strength is not graded here.

The assay has as its target T1, CCAAT/enhancer binding protein β (C/EBPβ), as precipitated by the C/EBPβ antibody, isoforms not told apart (UniProt P21272).
T1 sequence: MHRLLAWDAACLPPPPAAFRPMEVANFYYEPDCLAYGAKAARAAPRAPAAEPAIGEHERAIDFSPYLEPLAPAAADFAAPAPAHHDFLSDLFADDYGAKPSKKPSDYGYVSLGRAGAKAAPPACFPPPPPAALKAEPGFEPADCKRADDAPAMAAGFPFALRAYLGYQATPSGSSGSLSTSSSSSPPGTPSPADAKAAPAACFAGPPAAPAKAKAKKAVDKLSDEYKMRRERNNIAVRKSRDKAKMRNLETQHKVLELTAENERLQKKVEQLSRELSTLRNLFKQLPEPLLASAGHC
The experiment in a line: co-IP; nuclear extract of C/EBPβ-transfected ATDC5 cells incubated for 10 minutes with magnetic beads conjugated with C/EBPβ, RUNX2 or normal rabbit IgG antibody; immunoblotting with C/EBPβ or RUNX2 antibody. (In general: In western blotting, separated proteins are transferred to a membrane and probed.)

Consider “runt-related transcription factor-2 (RUNX2) (from UniProt Q08775 1-607)”, for which the binding entry is on record as “binds”.
